Test results taken from the supplement of paper PMC12889115.
The other results are listed elsewhere or left out. Values are raw readings; no control value is given beside them.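 Primary screen: polymyxin B was added at a level permeabilizing Salmonella outer membranes while sparing inner membranes. DMSO wells, both with and without polymyxin B, established maximum growth. Plate-to-plate variation meant each plate was ranked on its own, and the lowest-OD600 compounds were selected as hits.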

Tested on: Salmonella enterica serovar Typhimurium SL1344
Test: bacterial growth OD600 after 18 h with compound and polymyxin B; higher = more bacterial growth (less inhibition)
Details: 50 µM, Mueller-Hinton broth

SMILES: Cc1nc2sccn2c1C(=O)N1CCC(n2nccc2NC(=O)C(C)(C)C)CC1
- bacterial growth OD600 (polymyxin B 1 µg/mL): 0.97

SMILES: CCOC(=O)CNC(=O)N1CCCC(Cc2ccc(F)cc2F)(C(=O)OCC)C1 (stereo unspecified)
- bacterial growth OD600 (polymyxin B 1 µg/mL): 0.828

SMILES: CCn1c(-c2cccnc2)nc2cc(NC(=O)COC)cc(C(=O)N(C)Cc3ccc(C)cc3)c21
- bacterial growth OD600 (polymyxin B 0.75 µg/mL): 0.846

SMILES: COc1ccc(CN2CCN(Cc3ccccc3F)C(CCO)C2)cc1OC (stereo unspecified)
- bacterial growth OD600 (polymyxin B 1 µg/mL): 0.882

SMILES: Oc1ccc(CN2CCCC(c3ccnc(SCCN4CCCC4)n3)C2)cc1 (stereo unspecified)
- bacterial growth OD600 (polymyxin B 0.75 µg/mL): 0.777

SMILES: COCCCN1C(=O)CC(CC(=O)N2CC3(C)CC2CC(C)(C)C3)(c2ccccc2Cl)C1=O (stereo unspecified)
- bacterial growth OD600 (polymyxin B 0.75 µg/mL): 0

SMILES: Cc1nc(CCNC(=O)c2coc(CN3CCN(c4ccccc4F)CC3)n2)sc1C
- bacterial growth OD600 (polymyxin B 1 µg/mL): 0.881

SMILES: Cc1nc(CCNC(=O)C2CCC(=O)N(CCCN3CCOCC3)C2)sc1C (stereo unspecified)
- bacterial growth OD600 (polymyxin B 1 µg/mL): 0.935

SMILES: CN(Cc1ccccc1)C1(CNCc2nccn2C)Cc2ccccc2C1
- bacterial growth OD600 (polymyxin B 0.75 µg/mL): 0.68

SMILES: COC1CCN(Cc2cn(Cc3ccccc3)nc2-c2cc3ccccc3o2)CC1
- bacterial growth OD600 (polymyxin B 1 µg/mL): 0.582

SMILES: COc1cccc(N2C(=O)CN(C(=O)c3ccccc3C(F)(F)F)CC2C)c1 (stereo unspecified)
- bacterial growth OD600 (polymyxin B 0.75 µg/mL): 0.902

SMILES: C=CCNC(=O)C1CCCN(C2CCN(Cc3ccccc3)CC2)C1 (stereo unspecified)
- bacterial growth OD600 (polymyxin B 0.75 µg/mL): 0.803

SMILES: O[C@H]1CCN(c2ccc(-c3nc(Cc4ccccc4)no3)cn2)C1
- bacterial growth OD600 (polymyxin B 0.75 µg/mL): 0.898

SMILES: COc1ccc(CC2(CCC(=O)NCC(C)c3ccccc3)CCC(=O)N2)c2ccccc12 (stereo unspecified)
- bacterial growth OD600 (polymyxin B 0.75 µg/mL): 0.822

SMILES: CN(CC1CCCN(CCc2ccccc2F)C1)C(=O)c1cccc(F)c1 (stereo unspecified)
- bacterial growth OD600 (polymyxin B 1 µg/mL): 0.874

SMILES: CCOc1cc(CN2CCC3(CC2)CC3C(=O)NCc2cccc(C(F)(F)F)c2)ccc1O (stereo unspecified)
- bacterial growth OD600 (polymyxin B 0.75 µg/mL): 0.842

SMILES: COc1ccc(-c2nn(-c3ccccc3F)cc2CN2CCSCC2)cc1
- bacterial growth OD600 (polymyxin B 1 µg/mL): 0.606

SMILES: O=C(NCc1ccccc1Cl)c1cccc(OC2CCN(C(=O)C3CC3)CC2)c1
- bacterial growth OD600 (polymyxin B 1 µg/mL): 0.724

SMILES: Cc1nc2ccccc2n1Cc1cc(C(=O)N(C)Cc2ccon2)no1
- bacterial growth OD600 (polymyxin B 1 µg/mL): 1.12

SMILES: Cn1nccc1C(=O)NCc1cccnc1N1CCOCC1
- bacterial growth OD600 (polymyxin B 1 µg/mL): 0.976

SMILES: CO[C@H]1[C@H](NC(=O)C(C)C)c2ccccc2C12CCN(C(=O)c1ccc(C)s1)CC2
- bacterial growth OD600 (polymyxin B 0.75 µg/mL): 0.829

SMILES: COc1ccc(CN2CCCC(CO)(Cc3ccc(F)cc3)C2)cc1 (stereo unspecified)
- bacterial growth OD600 (polymyxin B 0.75 µg/mL): 0.736

SMILES: CCCCC1CN(CCC(=O)NCCCOc2cccnc2)Cc2ccccc2O1 (stereo unspecified)
- bacterial growth OD600 (polymyxin B 0.75 µg/mL): 0.824

SMILES: O=C(CCn1cncn1)N1CCCC(CNC(=O)C2(c3ccc(Cl)cc3)CC2)C1 (stereo unspecified)
- bacterial growth OD600 (polymyxin B 1 µg/mL): 0.796

SMILES: CC(C)CN(C)CC1CCCN(CCc2ccc(F)cc2)C1 (stereo unspecified)
- bacterial growth OD600 (polymyxin B 1 µg/mL): 0.863

SMILES: COc1ccccc1C(=O)N[C@@H]1c2ccccc2C2(CCN(Cc3cc(F)cc(F)c3)CC2)[C@H]1OC
- bacterial growth OD600 (polymyxin B 0.75 µg/mL): 0.233

SMILES: O=C(c1cnc2ccccn2c1=O)N1CCOc2ccc(CN3CCc4ccccc4C3)cc2C1
- bacterial growth OD600 (polymyxin B 0.75 µg/mL): 0.762

SMILES: CCc1ccc(CN2CCCC(CCC(=O)Nc3ccc(OC)cc3C)C2)o1 (stereo unspecified)
- bacterial growth OD600 (polymyxin B 1 µg/mL): 0.892

SMILES: CC(=O)c1cccc(OCc2cc(C(=O)N3CCCC3c3ccccn3)n[nH]2)c1 (stereo unspecified)
- bacterial growth OD600 (polymyxin B 1 µg/mL): 0.844

SMILES: Cc1ccccc1-n1cc(CN(C)Cc2nc(-c3ccccc3)no2)cn1
- bacterial growth OD600 (polymyxin B 1 µg/mL): 0.562

SMILES: Cc1cc(NCc2cccnc2Oc2ccc(F)c(F)c2)nc(N)n1
- bacterial growth OD600 (polymyxin B 0.75 µg/mL): 0.85
